Experimental data as given in publication doi:10.1101/2025.09.05.674414.

B1: RPAP2 (mouse) (protein, UniProt Q8VC34 1-614)
chain: MADSAVPCSLGPSTRASSTHRDATGTKQTRALKRGDASKRQAELEAAIQRKVEFERKAVRIVEQLLEENITEEFLKECGMFITPAHYSDVVDERSIIKLCGYPLCQKKLGVIPKQKYRISTKTNKVYDITERKSFCSNFCYRASKFFETQIPKTPVWVREEERPPDFQLLKKGQSGSSGEVVQFFRDAVTAADVDGSGALEAQCDPASSSSWSERASDEEEQGFVSSLLPGNRPKAVDTRPQPHTKSSIMRKKAAQNVDSKEGEQTVSEVTEQLDNCRLDSQEKVATCKRPLKKESTQISSPGPLCDRFNTSAISEHKHGVSQVTLVGISKKSAEHFRSKFAKSNPGSGSASGLVHVRPEVAKANLLRVLSDTLTEWKTEETLKFLYGQNHDSVCLKPSSASEPDEELDEDDISCDPGSCGPALSQAQNTLDATLPFRGSDTAIKPLPSYESLKKETEMLNLRVREFYRGRCVLNEDTTKSQDSKESVLQRDPSFPLIDSSSQNQIRRRIVLEKLSKVLPGLLGPLQITMGDIYTELKNLIQTFRLSNRNIIHKPVEWTLIAVVLLLLLTPILGIQKHSPKNVVFTQFIATLLTELHLKFEDLEKLTMIFRTSC
B2: NUP50 (mouse) (protein, UniProt Q9JIH2 1-466)
chain: MAKRVAEKELTDRNWDEEDEVEEMGTFSVASEEVMKNRAVKKAKRRNVGFESDSGGAFKGFKGLVVPSGGGGFSGFGGSGGKPLEGLTNGNSTDNATPFSNVKTAAEPKAAFGSFAVNGPTTLVDKKISSPKCNNSNQPPSSGPASSTACPGNAYHKQLAGLNCSVRDWIVKHVNTNPLCDLTPIFKDYERYLATIEKQLENGGGSSSESQTDRATAGMEPPSLFGSTKLQQESPFSFHGNKAEDTSEKVEFTAEKKSDAAQGATSASFSFGKKIESSALGSLSSGSLTGFSFSAGSSSLFGKDAAQSKAASSLFSAKASESPAGGGSSECRDGEEEENDEPPKVVVTEVKEEDAFYSKKCKLFYKKDNEFKEKGVGTLHLKPTATQKTQLLVRADTNLGNILLNVLIAPNMPCTRTGKNNVLIVCVPNPPLDEKQPTLPATMLIRVKTSEDADELHKILLEKKDA
B3: ATXN2 (mouse) (protein, UniProt O70305 1-1285)
chain: MRSSTAAVQRPAAGDPEPRRPAGWAARRSLPRTARRGGRGGAVAYPSAGPPPRGPGAPPRGPRSPPCASDCFGSNGHGASRPGSRRLLGVCGPPRPFVVVLLALAPAATPARACPPGVRASPPRSGVSSSARPAPGCPRPACEPVYGPLTMSLKPQPQPPAPATGRKPGGGLLSSPGAAPASAAVTSASVVPAPAAPVASSSAAAGGGRPGLGRGRNSSKGLPQPTISFDGIYANVRMVHILTSVVGSKCEVQVKNGGIYEGVFKTYSPKCDLVLDAAHEKSTESSSGPKREEIMESVLFKCSDFVVVQFKDTDSSYARRDAFTDSALSAKVNGEHKEKDLEPWDAGELTASEELELENDVSNGWDPNDMFRYNEENYGVVSTYDSSLSSYTVPLERDNSEEFLKREARANQLAEEIESSAQYKARVALENDDRSEEEKYTAVQRNCSDREGHGPNTRDNKYIPPGQRNREVLSWGSGRQSSPRMGQPGPGSMPSRAASHTSDFNPNAGSDQRVVNGGVPWPSPCPSHSSRPPSRYQSGPNSLPPRAATHTRPPSRPPSRPSRPPSHPSAHGSPAPVSTMPKRMSSEGPPRMSPKAQRHPRNHRVSAGRGSMSSGLEFVSHNPPSEAAAPPVARTSPAGGTWSSVVSGVPRLSPKTHRPRSPRQSSIGNSPSGPVLASPQAGIIPAEAVSMPVPAASPTPASPASNRALTPSIEAKDSRLQDQRQNSPAGSKENVKASETSPSFSKADNKGMSPVVSEHRKQIDDLKKFKNDFRLQPSSTSESMDQLLSKNREGEKSRDLIKDKTEASAKDSFIDSSSSSSNCTSGSSKTNSPSISPSMLSNAEHKRGPEVTSQGVQTSSPACKQEKDDREEKKDTTEQVRKSTLNPNAKEFNPRSFSQPKPSTTPTSPRPQAQPSPSMVGHQQPAPVYTQPVCFAPNMMYPVPVSPGVQPLYPIPMTPMPVNQAKTYRAGKVPNMPQQRQDQHHQSTMMHPASAAGPPIVATPPAYSTQYVAYSPQQFPNQPLVQHVPHYQSQHPHVYSPVIQGNARMMAPPAHAQPGLVSSSAAQFGAHEQTHAMYACPKLPYNKETSPSFYFAISTGSLAQQYAHPNAALHPHTPHPQPSATPTGQQQSQHGGSHPAPSPVQHHQHQAAQALHLASPQQQSAIYHAGLAPTPPSMTPASNTQSPQSSFPAAQQTVFTIHPSHVQPAYTTPPHMAHVPQAHVQSGMVPSHPTAHAPMMLMTTQPPGPKAALAQSALQPIPVSTTAHFPYMTHPSVQAHHQQQL
B4: UBAP2L (mouse) (protein, UniProt Q80X50 1-1107)
chain: MMTSVGTNRARGNWEQPQNQNQTQHKQRPQATAEQIRLAQMISDHNDADFEEKVKQLIDITGKNQDECVIALHDCNGDVNRAINVLLEGNPDTHSWEMVGKKKGVSGQKDGGQTESNEEGKENRDRDRDYSRRRGGPPRRGRGASRGREFRGQENGLDGTKSGGPSGRGTDRGRRGRGRGRGSSGRRGGRFSAQGMGTFNPADYAEPANTDDNYGNSSGNTWNNTGHFEPDDGTRLDFIGVEGSNYPRKFETAPGAWRTATEEWGTEDWNEDLSETKIFTASNVSSVPLPAENVTITAGQRIDLAVLLGKTPSSMENDSSNLDPSQAPSLAQPLVFSNSKQNAISQPASGSTFSHHSMVSMLGKGFGDVGEAKGGSTTGSQFLEQFKTAQALAQLAAQHSQSGSTTTSSWDMGSTTQSPSLVQYDLKSANDSTVHSPFTKRQAFTPSSTMMEVFLQEKPPAVATSTAAPPPPSSPLPSKSTSAPQMSPGSSDNQSSSPQPAQQKLKQQKKKTSLTSKIPALAVEMPGSADISGLNLQFGALQFGSEPVLSDYESTPTTSASSSQAPSSLYTSTASESSSTVSSNQSQESGYQSGPIQSTTYTSQNNAQGPLYEQRSTQTRRYPSSISSSPQKDLTQAKNGFSSVQATQLQTTQSVEGATGSAVKSESPSTSSIPSLNETVPAASLLTTANQHSSSLSGLSHTEEIPNTTTTQHSSALSTQQNTLSSSTSSGRTSTSTLLHTSVESEANLHSSSSTFSTTSSTVSAPPPVVSVSSSLNSGSSLGLSLGSNSTVTASTRSSVATTSGKAPPNLPPGVPPLLPNPYIMAPGLLHAYPPQVYGYDDLQMLQTRFPLDYYSIPFPTPTTPLTGRDGSLASNPYSGDLTKFGRGDASSPAPATTLAQPQQNQTQTHHTTQQTFLNPALPPGYSYTSLPYYTGVPGLPSTFQYGPAVFPVAPTSSKQHGVNVSVNASATPFQQPSGYGSHGYNTGVSVTSSNTGVPDISGSVYSKTQQSFEKQGFHSGTPAASFNLPSALGSGGPINPATAAAYPPAPFMHILTPHQQPHSQILHHHLQQDGQTGSGQRSQTSSIPQKPQTNKSAYNSYSWGAN
B5: GPHN (mouse) (protein, UniProt Q8BUV3 1-769)
chain: MATEGMILTNHDHQIRVGVLTVSDSCFRNLAEDRSGINLKDLVQDPSLLGGTISAYKIVPDEIEEIKETLIDWCDEKELNLILTTGGTGFAPRDVTPEATKEVIEREAPGMALAMLMGSLNVTPLGMLSRPVCGIRGKTLIINLPGSKKGSQECFQFILPALPHAIDLLRDAIVKVKEVHDELEDLPSPPPPLSPPPTTSPHKQTEDKGVQCEEEEEEKKDSGVASTEDSSSSHITAAALAAKIPDSIISRGVQVLPRDTASLSTTPSESPRAQATSRLSTASCPTPKQIRRPDESKGVASRVGSLKARLPSCSSTYSVSEVQSRCSSKENILRASHSAVDITKVARRHRMSPFPLTSMDKAFITVLEMTPVLGTEIINYRDGMGRVLAQDVYAKDNLPPFPASVKDGYAVRAADGPGDRFIIGESQAGEQPTQTVMPGQVMRVTTGAPIPCGADAVVQVEDTELIRESDDGTEELEVRILVQARPGQDIRPIGHDIKRGECVLAKGTHMGPSEIGLLATVGVTEVEVNKFPVVAVMSTGNELLNPEDDLLPGKIRDSNRSTLLATIQEHGYPTINLGIVGDNPDDLLNALNEGISRADVIITSGGVSMGEKDYLKQVLDIDLHAQIHFGRVFMKPGLPTTFATLDIDGVRKIIFALPGNPVSAVVTCNLFVVPALRKMQGILDPRPTIIKARLSCDVKLDPRPEYHRCILTWHHQEPLPWAQSTGNQMSSRLMSMRSANGLLMLPPKTEQYVELHKGEVVDVMVIGRL
B6: MLF2 (mouse) (protein, UniProt Q99KX1 1-247)
chain: MFRFMRDVEPEDPMFLMDPFAIHRQHMSRMLSGGFGYSPFLSITDGNMPATRPASRRMQAGAVSPFGMLGMSGGFMDMFGMMNDMIGNMEHMAAGGNCQTFSSSTVISYSNTGDGAPKVYQETSEMRSAPGGIRETRRTVRDSDSGLEQMSIGHHIRDRAHILQRSRNHRTGDQEERQDYINLDESEAAAFDDEWRRETSRYRQQRPLEFRRHEASVGGGRRAEGPPRLAIQGPEDSPSRQSRRYDW
B7: PRKRA (mouse) (protein, UniProt Q9WTX2 1-313)
chain: MSHSRHRAEAPPLQREDSGTFSLGKMITAKPGKTPIQVLHEYGMKTKNIPVYECERSDVQVHVPTFTFRVTVGDITCTGEGTSKKLAKHRAAEAAINILKANASICFAVPDPLMPDPSKQPKNQLNPIGSLQELAIHHGWRLPEYTLSQEGGPAHKREYTTICRLESFMETGKGASKKQAKRNAAEKFLAKFSNISPENHISLTNVVGHSLGCTWHSLRNSPGEKINLLKRSLLSLPNTDYIQLLSEIASEQGFNITYLDIEELSANGQYQCLAELSTSPITVCHGSGISCGNAQSDAAHNALQYLKIIAERK
B8: ZNF281 (mouse) (protein, UniProt Q99LI5 1-893)
chain: MKIGSGFLSGGGGPSSSGGSGSGGSSGSASGGSGGGRRAEMEPTFPQSMVMFNHRLPPVTSFTRPAGTAAPPPQCVLSSSTSAAPAAEPPPPPAPDMTFKKEPAASAAAFPSQRTSWGFLQSLVSIKQEKPADPEEQPSHHHHHHHHYGGLFAGAEERSPGLGGGEGGSHGVIQDLSLLHQHAQQQPAQHHRDVLLSSGSRTDEHGNQEPKQDANVKKAKRPKPESQGIKAKRKPSASSKPLVGEGEGAVLSPSQKPHICDHCSAAFRSSYHLRRHVLIHTGERPFQCSQCSMGFIQKYLLQRHEKIHSREKPFGCDQCSMKFIQKYHMERHKRTHSGEKPYKCDTCQQYFSRTDRLLKHRRTCGEAIAKGAASAEPGSSNHNSMGNLAVLSQGNTSSSRRKSKSKSIAIENKEHKTGKTNESQMSNNINMQSYSVEMPTVSTSGSIIGTGIDELQKRVPKLIFKKGSRKNADKSYLNFVSPLPDVVGQKSLSGKPGGSLGIVSNNSVETISLLQSTSGKQGPISSNYDDAMQFSKKRRYLPTASSNSAFSINVGHMVSQQSVIQSAGVSVLDNEAPLSLIDSSALNAEIKSCHDKSGIPDEVLQSILDQYSGKSETQKEDPFNLTEPRVDLHTSGEHSELVQEENLSPGTQTPSNDKTSMLQEYSKYLQQAFEKSTNAGFTLGHGFQFVSLSSPLHNHTLFPEKQIYTTSPLECGFGQSVTSVLPSSLPKPPFGMLFGSQPGLYLSALDATHQQLTPSQELDDLIDSQKNLETSSAFQSSSQKLTSQKEQQKNLESSTSFQIPSQELASQIDPQKDIEPRTTYQIENFAQAFGSQFKSGSRVPMTFITNSNGEVDHRVRTSVSDFSGYTNMMSDVSEPCSTRVKTPTSQSYR

Target: LINE-1 encoded ORF1p (mouse) (mouse (endogenous in MN9D))
Experiment: affinity purification with mass spectrometry

binding, binds:
B1
B2
B3
B4
B5
B6
B7
B8

These are yes or no findings as the source states them, for the method shown. Binding seen in cells or lysates may run through a third protein. A yes stands for co-enrichment or nearness to the bait. Other partners may have been found.
